In article PMC4860859:
Results are given in words; binding and its absence hold for the method and conditions named. Binding seen in cells or lysates may run through a third protein. Some results given as binding are weak or reduced against the parent protein; the word gives no strength. Where a sequence is shown, tags or fusion partners need not be part of it.

By UniProt entry, the sequences of proteins in these tests, tags left out.
UniProt Q08301: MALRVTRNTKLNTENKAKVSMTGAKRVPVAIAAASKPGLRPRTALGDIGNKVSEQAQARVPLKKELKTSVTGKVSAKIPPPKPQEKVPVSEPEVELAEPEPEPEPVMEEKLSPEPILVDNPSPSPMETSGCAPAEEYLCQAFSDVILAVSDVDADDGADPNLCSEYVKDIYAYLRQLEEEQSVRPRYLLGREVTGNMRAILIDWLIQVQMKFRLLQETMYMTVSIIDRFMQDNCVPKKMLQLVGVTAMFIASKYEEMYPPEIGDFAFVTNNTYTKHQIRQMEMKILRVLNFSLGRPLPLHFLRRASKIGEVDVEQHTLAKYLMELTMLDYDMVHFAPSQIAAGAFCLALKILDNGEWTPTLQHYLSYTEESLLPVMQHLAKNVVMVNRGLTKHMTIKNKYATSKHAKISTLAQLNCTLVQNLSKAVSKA
UniProt P14635: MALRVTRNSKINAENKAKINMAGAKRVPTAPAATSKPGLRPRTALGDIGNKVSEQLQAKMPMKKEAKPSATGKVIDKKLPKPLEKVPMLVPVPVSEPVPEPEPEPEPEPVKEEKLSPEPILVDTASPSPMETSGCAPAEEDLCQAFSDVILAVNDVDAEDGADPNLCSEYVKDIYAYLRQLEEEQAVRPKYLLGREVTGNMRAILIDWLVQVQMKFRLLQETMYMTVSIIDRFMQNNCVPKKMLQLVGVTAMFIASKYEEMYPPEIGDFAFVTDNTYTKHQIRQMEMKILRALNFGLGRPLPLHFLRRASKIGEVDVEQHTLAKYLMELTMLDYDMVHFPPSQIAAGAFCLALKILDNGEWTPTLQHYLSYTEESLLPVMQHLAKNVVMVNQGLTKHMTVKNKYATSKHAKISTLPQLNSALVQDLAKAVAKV

Assays:
[1] = biological target: T1, Human ERLIN2 tagged with V5, stably expressed in CHO cells (human) (UniProt O94905); assay: condition: only cells synchronized in interphase (G0, G1 or S phase); co-IP; ERLIN2 (V5)-expressing CHO cells synchronized in interphase (G0, G1 or S phase, serum starvation and release); IP with anti-V5 or anti-HA (negative control); blots with anti-Cyclin B1, anti-Cdk1
T1 sequence: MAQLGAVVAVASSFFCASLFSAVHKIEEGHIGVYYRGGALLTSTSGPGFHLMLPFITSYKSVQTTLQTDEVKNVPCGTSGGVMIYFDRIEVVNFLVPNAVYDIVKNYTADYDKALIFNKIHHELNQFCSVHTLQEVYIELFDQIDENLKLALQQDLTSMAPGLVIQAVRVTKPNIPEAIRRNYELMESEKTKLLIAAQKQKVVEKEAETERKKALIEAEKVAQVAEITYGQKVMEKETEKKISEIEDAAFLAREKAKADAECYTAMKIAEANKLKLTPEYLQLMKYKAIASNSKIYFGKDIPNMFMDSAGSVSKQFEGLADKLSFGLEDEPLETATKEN

[2] = biological target: T1, Human ERLIN2 tagged with V5, stably expressed in CHO cells (human); assay: co-IP; ERLIN2 (V5)-expressing CHO cells synchronized at G2/M phase (nocodazole, 16 h); IP with anti-V5 or anti-HA (negative control); blots with anti-Cyclin B1, anti-Cdk1, anti-α-tubulin
[3] = biological target: T1, Human ERLIN2 tagged with V5, stably expressed in CHO cells (human); assay: co-IP; CHO cell line stably expressing V5-tagged ERLIN2, transfected with flag-tagged Cyclin B1 or its truncated forms; IP with anti-V5 or rabbit IgG (negative control); blot with anti-flag; short and long film exposures

| binding [1] | binding [2] | binding [3] | Substance |
| --- | --- | --- | --- |
| no binding | binds |  | Cyclin B1, endogenous in CHO cells (from UniProt Q08301 1-429) |
|  |  | binds | flag-tagged full-length Cyclin B1 (from UniProt P14635 1-433) |
